{
  "source": "patent US20210261642A1",
  "about": "“SOLUBILITY OF GLP-1 PEPTIDE” (Novo Nordisk A/S, priority 2017, published 2021)",
  "assay": "Assay (I): Determination of Solubility (96-well plate, pH 3.0-11.0, organic solvent 0-70% w/w, UV absorption at 280 nm)",
  "format": "physicochemical",
  "settings": "Method 1 (evaporation)",
  "method": "Assay (I): Determination of Solubility\n96-Well Plate Preparation\n96-well plates containing target peptide in a solid form were prepared in one of two ways:\nMethod 1 (evaporation): Addition of 100 μl stock solution of said peptide at a concentration of 4-6 mg/ml to each well of a 96-well half area plate (150 μl well size). Subsequently the solvent was evaporated by applying a vacuum until the solvent was completely removed.\nMethod 2 (precipitation): Addition of a certain volume of a stock solution of said peptide containing to each well of a 96-well half area plate followed by the addition of a certain volume of concentrated phosphoric acid to obtain a pH of 4.6 followed by addition of a certain volume of ethanol resulting in a final ethanol concentration of 20% v/v. Subsequently the plate was stored at 4° C. for 1 h and then centrifuged at 4,000 rpm for 20 min. Finally the supernatant was removed. The concentration of the stock solution was chosen in a way that the final amount of peptide after supernatant removal was >0.4 mg per well.\nIn both cases the stock solution was prepared by adding de-ionized water to a certain amount of powder of said peptide followed by a stepwise addition of small amounts of a concentrated sodium hydroxide solution until said peptide was completely in solution.\nTo determine solubility of a target peptide at different pH and organic solvent concentrations, two different buffer systems were used in independent experiments to cover the whole range from pH 3.0 to pH 11.0. Buffer system 1 covers pH 3.0-7.5 and buffer system 2 covers pH 7.5-11.0. For each buffer system 96 different solvent compositions were premixed in the following way: • 1. A low pH buffer (adjusted to either pH 3.0 or pH 7.5) and a high pH buffer (adjusted to either pH 7.5 or pH 11.0) were mixed at 8 different ratios to obtain values between pH 3.0 and pH 7.5 or pH 7.5 and pH 11.0, respectively. The total volume after mixing was 300 μl. • 2. 12 different amounts of organic solvent were then added to these buffers to obtain organic solvent (e.g. ethanol) concentrations between 0 and 70% w/w. • 3. Water was then added to obtain a total weight of 1.0 g of solvent in each well.\nAfter preparing the 96 different solvent systems, 100 μl of each system was transferred to the 96-well plate containing the solid form of the target peptide (prepared as described in the section “96-well plate preparation”). The plate was then stored at a given temperature (between 5° C. and 70° C.) for a given time on a rotating shaker set to 400 rpm. At regular time intervals the plate was centrifuged (4,000 rpm for 10 min) and a 10 μl sample was taken from each well. The samples were then analysed by UV absorption at 280 nm for peptide quantification. Peptide concentration results are given as UV absorption at 280 nm of the sample subtracted UV absorption at 280 nm of a well comprising 10 μl water.\nThe buffers used were as follows: • Buffer system 1 (for the pH range from pH 3.0-7.5)\n• Buffer system 2 (for the pH ranae from pH 7.5-11.0)\nSolubility of liraglutide was determined using Assay (I) described herein. Liraglutide was prepared using Method 1 (evaporation) or Method 2 (precipitation) as described in subsection “96-well plate preparation”.",
  "note": "Further values from the same series stand in other lists.",
  "data": [
    {"smiles": "CCCCCCCCCCCCCCCC(=O)N[C@@H](CCC(=O)NCCCC[C@H](NC(=O)[C@H](C)NC(=O)[C@H](C)NC(=O)[C@H](CCC(N)=O)NC(=O)CNC(=O)[C@H](CCC(=O)O)NC(=O)[C@H](CC(C)C)NC(=O)[C@H](Cc1ccc(O)cc1)NC(=O)[C@H](CO)NC(=O)[C@H](CO)NC(=O)[C@@H](NC(=O)[C@H](CC(=O)O)NC(=O)[C@H](CO)NC(=O)[C@@H](NC(=O)[C@H](Cc1ccccc1)NC(=O)[C@@H](NC(=O)CNC(=O)[C@H](CCC(=O)O)NC(=O)[C@H](C)NC(=O)[C@@H](N)Cc1cnc[nH]1)[C@@H](C)O)[C@@H](C)O)C(C)C)C(=O)N[C@@H](CCC(=O)O)C(=O)N[C@@H](Cc1ccccc1)C(=O)N[C@H](C(=O)N[C@@H](C)C(=O)N[C@@H](Cc1c[nH]c2ccccc12)C(=O)N[C@@H](CC(C)C)C(=O)N[C@H](C(=O)N[C@@H](CCCNC(=N)N)C(=O)NCC(=O)N[C@@H](CCCNC(=N)N)C(=O)NCC(=O)O)C(C)C)[C@@H](C)CC)C(=O)O", "note": "[liraglutide, Arg34,Lys26-(N-epsilon-(gamma-L-glutamyl(N-alfa-hexadecanoyl)))-GLP-1(7-37)]", "values": [
      {"measurement": "Peptide concentration after 180 min", "setting": "DMF 57.3% w/w, pH 7.2, RT", "result": 0.4, "unit": "mg/mL"},
      {"measurement": "Peptide concentration after 24 h", "setting": "DMF 57.3% w/w, pH 7.2, RT", "result": 0.5, "unit": "mg/mL"},
      {"measurement": "Peptide concentration after 5 min", "setting": "DMF 57.3% w/w, pH 7.5, RT", "result": 1.6, "unit": "mg/mL"},
      {"measurement": "Peptide concentration after 180 min", "setting": "DMF 57.3% w/w, pH 7.5, RT", "result": ">4.0", "unit": "mg/mL"},
      {"measurement": "Peptide concentration after 5 min", "setting": "DMF 57.3% w/w, pH 8.0, RT", "result": 1.3, "unit": "mg/mL"},
      {"measurement": "Peptide concentration after 180 min", "setting": "DMF 57.3% w/w, pH 8.0, RT", "result": ">4.0", "unit": "mg/mL"},
      {"measurement": "Peptide concentration after 5 min", "setting": "DMF 57.3% w/w, pH 8.5, RT", "result": 3.3, "unit": "mg/mL"},
      {"measurement": "Peptide concentration after 180 min", "setting": "DMF 57.3% w/w, pH 8.5, RT", "result": ">4.0", "unit": "mg/mL"},
      {"measurement": "Peptide concentration after 5 min", "setting": "DMF 57.3% w/w, pH 9.0, RT", "result": 2.7, "unit": "mg/mL"},
      {"measurement": "Peptide concentration after 180 min", "setting": "DMF 57.3% w/w, pH 9.0, RT", "result": ">4.0", "unit": "mg/mL"},
      {"measurement": "Peptide concentration after 5 min", "setting": "DMF 57.3% w/w, pH 9.5, RT", "result": 2.5, "unit": "mg/mL"},
      {"measurement": "Peptide concentration after 180 min", "setting": "DMF 57.3% w/w, pH 9.5, RT", "result": ">4.0", "unit": "mg/mL"},
      {"measurement": "Peptide concentration after 5 min", "setting": "DMF 57.3% w/w, pH 10.0, RT", "result": 3.1, "unit": "mg/mL"},
      {"measurement": "Peptide concentration after 180 min", "setting": "DMF 57.3% w/w, pH 10.0, RT", "result": ">4.0", "unit": "mg/mL"},
      {"measurement": "Peptide concentration after 5 min", "setting": "DMF 57.3% w/w, pH 10.5, RT", "result": 3.7, "unit": "mg/mL"},
      {"measurement": "Peptide concentration after 180 min", "setting": "DMF 57.3% w/w, pH 10.5, RT", "result": ">4.0", "unit": "mg/mL"},
      {"measurement": "Peptide concentration after 5 min", "setting": "DMF 57.3% w/w, pH 11.0, RT", "result": 2.1, "unit": "mg/mL"},
      {"measurement": "Peptide concentration after 180 min", "setting": "DMF 57.3% w/w, pH 11.0, RT", "result": ">4.0", "unit": "mg/mL"},
      {"measurement": "Peptide concentration after 5 min", "setting": "DMF 63.6% w/w, pH 3.1, RT", "result": 0.3, "unit": "mg/mL"},
      {"measurement": "Peptide concentration after 180 min", "setting": "DMF 63.6% w/w, pH 3.1, RT", "result": 0.3, "unit": "mg/mL"},
      {"measurement": "Peptide concentration after 24 h", "setting": "DMF 63.6% w/w, pH 3.1, RT", "result": 0.4, "unit": "mg/mL"},
      {"measurement": "Peptide concentration after 5 min", "setting": "DMF 63.6% w/w, pH 4.8, RT", "result": 0.2, "unit": "mg/mL"},
      {"measurement": "Peptide concentration after 180 min", "setting": "DMF 63.6% w/w, pH 4.8, RT", "result": 0.2, "unit": "mg/mL"},
      {"measurement": "Peptide concentration after 24 h", "setting": "DMF 63.6% w/w, pH 4.8, RT", "result": 0.2, "unit": "mg/mL"},
      {"measurement": "Peptide concentration after 5 min", "setting": "DMF 63.6% w/w, pH 5.8, RT", "result": 0.2, "unit": "mg/mL"},
      {"measurement": "Peptide concentration after 180 min", "setting": "DMF 63.6% w/w, pH 5.8, RT", "result": 0.3, "unit": "mg/mL"},
      {"measurement": "Peptide concentration after 24 h", "setting": "DMF 63.6% w/w, pH 5.8, RT", "result": 0.3, "unit": "mg/mL"},
      {"measurement": "Peptide concentration after 5 min", "setting": "DMF 63.6% w/w, pH 6.3, RT", "result": 0.2, "unit": "mg/mL"},
      {"measurement": "Peptide concentration after 180 min", "setting": "DMF 63.6% w/w, pH 6.3, RT", "result": 0.3, "unit": "mg/mL"},
      {"measurement": "Peptide concentration after 24 h", "setting": "DMF 63.6% w/w, pH 6.3, RT", "result": 0.3, "unit": "mg/mL"},
      {"measurement": "Peptide concentration after 5 min", "setting": "DMF 63.6% w/w, pH 6.7, RT", "result": 0.3, "unit": "mg/mL"},
      {"measurement": "Peptide concentration after 180 min", "setting": "DMF 63.6% w/w, pH 6.7, RT", "result": 0.3, "unit": "mg/mL"},
      {"measurement": "Peptide concentration after 24 h", "setting": "DMF 63.6% w/w, pH 6.7, RT", "result": 0.3, "unit": "mg/mL"},
      {"measurement": "Peptide concentration after 5 min", "setting": "DMF 63.6% w/w, pH 6.9, RT", "result": 0.3, "unit": "mg/mL"},
      {"measurement": "Peptide concentration after 180 min", "setting": "DMF 63.6% w/w, pH 6.9, RT", "result": 0.4, "unit": "mg/mL"},
      {"measurement": "Peptide concentration after 24 h", "setting": "DMF 63.6% w/w, pH 6.9, RT", "result": 0.3, "unit": "mg/mL"},
      {"measurement": "Peptide concentration after 5 min", "setting": "DMF 63.6% w/w, pH 7.2, RT", "result": 0.4, "unit": "mg/mL"},
      {"measurement": "Peptide concentration after 180 min", "setting": "DMF 63.6% w/w, pH 7.2, RT", "result": 0.5, "unit": "mg/mL"},
      {"measurement": "Peptide concentration after 24 h", "setting": "DMF 63.6% w/w, pH 7.2, RT", "result": 0.5, "unit": "mg/mL"},
      {"measurement": "Peptide concentration after 5 min", "setting": "DMF 63.6% w/w, pH 7.5, RT", "result": 3.4, "unit": "mg/mL"},
      {"measurement": "Peptide concentration after 180 min", "setting": "DMF 63.6% w/w, pH 7.5, RT", "result": ">4.0", "unit": "mg/mL"},
      {"measurement": "Peptide concentration after 5 min", "setting": "DMF 63.6% w/w, pH 8.0, RT", "result": 1.6, "unit": "mg/mL"},
      {"measurement": "Peptide concentration after 180 min", "setting": "DMF 63.6% w/w, pH 8.0, RT", "result": ">4.0", "unit": "mg/mL"},
      {"measurement": "Peptide concentration after 5 min", "setting": "DMF 63.6% w/w, pH 8.5, RT", "result": 3.8, "unit": "mg/mL"},
      {"measurement": "Peptide concentration after 180 min", "setting": "DMF 63.6% w/w, pH 8.5, RT", "result": ">4.0", "unit": "mg/mL"},
      {"measurement": "Peptide concentration after 5 min", "setting": "DMF 63.6% w/w, pH 9.0, RT", "result": 3.1, "unit": "mg/mL"},
      {"measurement": "Peptide concentration after 180 min", "setting": "DMF 63.6% w/w, pH 9.0, RT", "result": ">4.0", "unit": "mg/mL"},
      {"measurement": "Peptide concentration after 5 min", "setting": "DMF 63.6% w/w, pH 9.5, RT", "result": 2.9, "unit": "mg/mL"},
      {"measurement": "Peptide concentration after 180 min", "setting": "DMF 63.6% w/w, pH 9.5, RT", "result": ">4.0", "unit": "mg/mL"},
      {"measurement": "Peptide concentration after 5 min", "setting": "DMF 63.6% w/w, pH 10.0, RT", "result": 3.7, "unit": "mg/mL"}
    ]}
  ]
}
